Source: PubChem BioAssay AID652272 (Drosophila RNAi Screening Center, 2013)

- Screen: 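Genes whose knock-down decreases or increases Hedgehog reporter output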 (primary screen)
- Cell system: Drosophila clone 8 (Cl8) cells
- Knock-down reagent: long dsRNA against Drosophila genes
- Read-out: 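Firefly light from a Hedgehog-responsive ptc promoter reporter and Renilla reference light, both read on a plate reader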
- Direction: firefly Hh reporter signal: higher = more ptc reporter light; Renilla reference signal: higher = more Renilla control light
- Rule for the call: 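Called a hit if the two-replicate mean z-score lies below -2 or above +3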
- Calls: active = hit: reporter lowered or raised; inactive = not a hit
In all, the deposit lists about 21,000 reagents; shown is a random part of those that have a named target and a result. In the full data, 503 (2.4%) got an active call. 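Raw plate light values, not normalised; calls rest on replicate z-scores that were not deposited; hits include reporter decreases as well as increases.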 A number with no mark means an inactive call. Names joined by + are all predicted targets of the reagent. The record does not give: the amount of reagent, the time to read-out.

no.	target	DRSC id	firefly Hh reporter signal, replicate 1	firefly Hh reporter signal, replicate 2	firefly Hh reporter signal, replicate 3	Renilla reference signal, replicate 1	Renilla reference signal, replicate 2
1	AkhR	DRSC03329	71608	49616		3053	2176
2	CG8673	DRSC03105	94545	41654		2988	4028
3	CG31068	DRSC13820	48740	2.02e5		12476	4384
4	Dop1R1	DRSC13020	30177	1.94e5		5288	3994
5	Dop1R1	DRSC13021	31739	1.64e5		5593	2288
6	Dop1R1	DRSC16652	1.05e5	1.10e5		2541	2627
7	Pgd	DRSC18697	1.22e5	67308		2805	2261
8	CG17738	DRSC15257	68861	1.18e5		2183	3260
9	eIF3f1	DRSC12328	56668	90112		1740	2512
10	glo	DRSC16145	1.13e5	1.22e5		4275	5011
11	CG10222	DRSC09714	50416	71271	84546	5738	5184
12	tn (retired record)	DRSC05768	81202	1.91e5		2338	6848
13	tn (retired record)	DRSC06532	91911	50508		4496	2492
14	CG11159	DRSC06050	97138	38359		3292	3515

4 neighbouring reagents already listed:
no.	target	DRSC id	firefly Hh reporter signal, replicate 1	firefly Hh reporter signal, replicate 2	firefly Hh reporter signal, replicate 3	Renilla reference signal, replicate 1	Renilla reference signal, replicate 2
1	AkhR	DRSC03329	71608	49616		3053	2176
2	CG8673	DRSC03105	94545	41654		2988	4028
3	CG31068	DRSC13820	48740	2.02e5		12476	4384
4	Dop1R1	DRSC13020	30177	1.94e5		5288	3994

Continued.
no.	target	DRSC id	firefly Hh reporter signal, replicate 1	firefly Hh reporter signal, replicate 2	firefly Hh reporter signal, replicate 3	Renilla reference signal, replicate 1	Renilla reference signal, replicate 2
15	CG42362 + CG42363	DRSC04265	1.39e5	62693		5618	2317
16	Drsl6	DRSC08161	1.04e5	63794		3531	5082
17	jhamt	DRSC01985	1.07e5	58812		2779	4464
18	CG31948	DRSC00740	1.06e5	86439		2579	2353
19	FucTD	DRSC08634	61540	37921		2466	3320
20	Obp46a	DRSC06220	75281	69344		1768	5285
21	CG9400	DRSC20182	1.16e5	79459		2828	1664
22	Pif2	DRSC12525	60437	72086		2304	2299
23	CG6766	DRSC02991	1.15e5	4.75e5	69929	3026	28440
